# Source: PubChem BioAssay AID2417 (National Center for Advancing Translational Sciences (NCATS), 2010)
# Among all 140,000 compounds or so, about 4,300 (3.1%) were called active. The shares of active, inactive and inconclusive entries below differ from those in the screen.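 Rule for the calls: active = readout at or below -70, meaning at least 70% loss of cells showing the perinucleolar compartment, a nuclear body marking cancer cells; inconclusive = readout between -30 and a set limit; inactive = the rest.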
# Assay: High Content Assay for Compounds that inhibit the Assembly of the Perinucleolar Compartment;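 note: plate controls were DMSO wells for no effect and camptothecin positive control wells for full effect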
# Conditions: PC3M PTB-GFP, PNC prevalence imaging, 16 h; at 10 µM; active compounds read low
# How it was run: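 Read-out is percentage of cells bearing a perinucleolar compartment, from automated 20x imaging of fixed, Hoechst-stained PC3M PTB-GFP cells. Cells were seeded 4 h, then exposed 16 h to compound (23 nl of library stock) in duplicate plates.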
row,SMILES,"activity change (PNC), negative = inhibition"
1,O=C(O)c1nn2c(C(F)(F)F)cc(-c3cccs3)nc2c1Cl,inconclusive: -40%
2,O=C(COC(=O)CN1C(=O)C2CCCCC2C1=O)NC1CCS(=O)(=O)C1 (stereo not given),inactive: 68.2%
3,COCCCNC(=O)CSc1nc2ccccc2c(=O)n1CCCC(=O)NCC1CCCO1 (stereo not given),inconclusive: -69.1%
4,Fc1ccccc1C(c1nnnn1Cc1ccc2c(c1)OCO2)N1CCN(Cc2ccccc2)CC1 (stereo not given),inconclusive: -43.1%
5,COC(=O)Nc1nc(-c2ccccc2)c(C(=O)c2ccc(Cl)cc2)s1,active: -102%
6,COc1ccc(CN(C)CC(=O)Nc2ccc(Cl)cc2C(F)(F)F)c(OC)c1,inactive: -11.6%
7,CCOC(=O)CC1=CC(C)(CC(=O)OCC)C(C#N)(C#N)C(N)=C1C#N (stereo not given),inconclusive: -32.3%
8,O=C(CCc1nc2ccccc2[nH]1)N1CCc2ccccc2C1,active: -91.3%
9,CCCN1C(=O)c2ccc(C(=O)Nc3nccs3)cc2C1=O,active: -84.6%
10,COCCN1CN(S(=O)(=O)c2ccccc2)c2nc3ccccc3nc21,active: -117%
11,C/C(CCN1CCc2nc(-c3ccccc3)c(-c3ccccc3)cc2C1)=N\O[C@@H](C)c1cn([C@H](CO)Cc2ccccc2)nn1,inactive: 20.8%
12,O=c1c2c3c(sc2n2cnnc2n1Cc1ccccc1)CN(Cc1ccccc1)CC3,inconclusive: -48.2%
13,c1ccc(-n2cnnc2SCc2nc3ccccc3s2)cc1,inconclusive: -36%
14,COc1ccc(S(=O)(=O)Nc2nnc(C(C)C)s2)cc1,inconclusive: -37.6%
15,COc1cc(Nc2cc(C)nc3nc(C)nn23)cc(OC)c1OC,inactive: 6.98%
16,CC(Sc1ccccn1)C(=O)Nc1ccc(S(N)(=O)=O)cc1 (stereo not given),active: -108%
17,CCCCCn1c(CN2CCN(Cc3ccccc3)CC2)nc2c1c(=O)n(C)c(=O)n2C,inconclusive: -50%
18,O=C(NNc1ccc([N+](=O)[O-])cc1)C1C2CCCCC21 (stereo not given),inactive: 18.4%
19,CCCCCCNC(=O)C(C#N)c1nc2ccccc2nc1N1CCCC1 (stereo not given),inconclusive: -43%
20,CCCS(=O)(=O)N1CCN(C(=O)COc2ccc(-c3ccccc3)cc2)CC1,active: -87.6%
21,CCOc1ccc(NC(=O)CCC(=O)OC)cc1,inconclusive: -36.1%
22,O=[N+]([O-])c1ccc(NCc2ccccc2)nc1,inconclusive: -55%
23,COC(=O)N/N=C/c1cn(Cc2c(Cl)cccc2Cl)c2ccccc12,inconclusive: -73.4%

# Part of the list above in another layout.
row	SMILES	activity change (PNC), negative = inhibition
9	CCCN1C(=O)c2ccc(C(=O)Nc3nccs3)cc2C1=O	active: -84.6%
10	COCCN1CN(S(=O)(=O)c2ccccc2)c2nc3ccccc3nc21	active: -117%
11	C/C(CCN1CCc2nc(-c3ccccc3)c(-c3ccccc3)cc2C1)=N\O[C@@H](C)c1cn([C@H](CO)Cc2ccccc2)nn1	inactive: 20.8%

# (next part)

row,SMILES,"activity change (PNC), negative = inhibition"
1,Cc1sc2nc(SCC(=O)NCc3ccco3)n(Cc3ccccc3)c(=O)c2c1C,inconclusive: -39.5%
2,CCc1c(C(=O)O)[nH]c2ccc(Br)cc12,inactive: -8.48%
3,CCc1ccc(CCC(=O)Nc2nccs2)o1,inactive: 28.3%
4,CS(=O)(=O)N(CC(=O)NCc1ccco1)Cc1ccc(Cl)cc1,inconclusive: -68.4%
5,CCOC(=O)c1c(C)[nH]c(C)c1C(=O)CSc1nc2ccccc2n1CC,inconclusive: -35.1%
6,CNC(=O)c1sc2nc(-c3ccc(OC)cc3)cn2c1C,inactive: 44.9%
7,CC(C)C(=O)O/N=C(\N)c1ccccn1,inconclusive: -61.5%
8,CC(=O)N1CCc2cc(S(=O)(=O)N3CCOCC3)ccc21,inactive: -18.9%
9,CCOc1cc(/C=N/Nc2nc(N3CCCC3)nc(N3CCCC3)n2)ccc1O,inconclusive: -34%
10,Cc1c(C(=O)Oc2ccc(-c3cnc4ccccc4n3)cc2)cccc1[N+](=O)[O-],inconclusive: -38.3%
11,Cn1nnnc1SCc1cc(=O)n2ccsc2n1,inactive: -0.619%
12,CC1=NC(=O)C(N=Nc2ccccc2)N1c1ccccc1 (stereo not given),inconclusive: -34.3%
13,O=C1C2CC=C(Cl)CC2C(=O)N1CCCCCCN1C(=O)C2CC=C(Cl)CC2C1=O (stereo not given),inconclusive: -43.7%
14,Cc1ccc(NC(=O)Cn2cnc3c(oc4nc5c(cc43)COC(C)(C)C5)c2=O)cc1,active: -84.2%
15,O=C(/C=C/c1ccco1)NC(=S)Nc1ccccc1N1CCOCC1,active: -109%
16,COc1ccccc1OCCSc1ncnc2nc[nH]c12,inconclusive: -60.7%
17,CCOc1ccc(Oc2cc(C)nc(SC)n2)nn1,inconclusive: -42.3%
18,COc1ccc(C(=O)C2CCN(S(=O)(=O)c3ccc4c(c3)OCCO4)CC2)cc1,inactive: 10%
19,COc1ccc2nc3oc(C(=O)N4CCCCC4)cc3cc2c1,active: -100%
20,N#C/C(=C\c1cn[nH]c1-c1ccccc1)C(=O)NC1CCCCCC1,inactive: 47.4%
21,O=C(Cc1ccc(F)cc1)OCC(=O)c1cc2ccccc2o1,inactive: 20.4%
22,Cc1c(NC(=O)C(C)Oc2ncnc3ccccc23)c(=O)n(-c2ccccc2)n1C (stereo not given),inconclusive: -75.6%
